PubChem BioAssay AID2685 (National Center for Advancing Translational Sciences (NCATS), 2010)
In all, about 320,000 compounds went through this assay and about 2,100 (0.66%) were called active. Inconclusive results, whose numbers are uncertain, are shown with a selection of clear calls. Calls follow the shape of the dose curve; as a rule, active = well fitted inhibition curve with a large enough effect in the signal ratio, with a control signal flat (not every such curve was filed as active); inconclusive = small, poorly fitted or top-dose-only effect, or effect the other way, or a change in a side signal; inactive = flat fitted curve, though single readings scatter; the % refers to the signal ratio. Potencies beside an inconclusive call are fits to weak or partial responses and may not hold up.

test: qHTS Assay for Lipid Storage Modulators in Drosophila S3 Cells; conditions: BODIPY lipid droplet fluorescence, 18-24 h, cells fed with added oleic acid; lipid storage change, negative = inhibition: at 46.1 µM (top of the series) unless noted
Summary of the method: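 Laser-scanning cytometry quantifies lipid droplet accumulation (500–530 nm total intensity; droplet/cell object ratio) in oleic acid-fed (400 uM added) Drosophila S3 cells treated with a concentration series. 20 uM Triacsin C defined 100% inhibition.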
% is scaled to controls: 0 for no effect and ±100 for the full control effect; potency is read from the fitted curve at half-maximal effect.

Structure (SMILES)	lipid storage change, negative = inhibition	Potency
CCC(C)N(C(=O)Cn1nnc(-c2ccc(F)cc2)n1)C1CCS(=O)(=O)C1 (centres undefined)	inactive	–
O=C(Nc1ccc(NC(=O)c2cccc([N+](=O)[O-])c2)cc1)c1cccc([N+](=O)[O-])c1	inactive	–
COc1cc(C(=O)NC(=S)NNC(=O)c2ccc3c(c2)OCO3)cc(OC)c1OC	inconclusive: 50.4%	–
COCCn1nnnc1C(C(C)C)N1CCC(Cc2ccccc2)CC1 (centres undefined)	–	inconclusive: 29.1 µM [activator, single point]
Cc1cc(C)c(CN2CCC(n3nccc3NC(=O)C3CCCC3)CC2)cc1C	–	inconclusive: 6.51 µM [activator, partial curve]
CC(=O)c1cccc(NC(=S)NC(=O)c2cccc(Cl)c2)c1	inconclusive: 22%	–
C=CCn1c(-c2csc(-c3ccccc3)n2)n[nH]c1=S	–	inconclusive: 8.2 µM [activator, partial curve]
CC1(C)CC(=O)c2c(-c3cccnc3)n[nH]c2C1	–	inconclusive: 0.13 µM [falling, full curve]
Cc1nnc(SCC(=O)Nc2nonc2C)s1	inconclusive: -14%	–
Cc1cc(C)c(NC(=O)CN2C(=O)NC3(CCCCC3)C2=O)c(C)c1	–	inconclusive: 6.51 µM [falling, single point]
O=C(CSC1=NCCS1)Nc1ccc(S(=O)(=O)N2CCCCCC2)cc1	inconclusive: 44%	–
Cc1nc2ccccc2c(=O)n1/N=C/c1ccc(O)cc1O	inconclusive: -10.2%	–
CC(=O)c1c(C)[nH]c(C(=O)/C(C#N)=C/c2cccc(C)c2)c1C	–	inconclusive: 6.51 µM [falling, single point]
Cc1ccc(CSc2ccc3nnc(-c4cccnc4)n3n2)cc1	inconclusive: -12%	–
CCOC(=O)Cc1csc(SCC(=O)NC(C)C23CC4CC(CC(C4)C2)C3)n1 (centres undefined)	–	active: 1.64 µM
O=C(O)CN(c1ccccc1)S(=O)(=O)c1cc(C(F)(F)F)cc(C(F)(F)F)c1	–	inconclusive: 29.1 µM [falling, single point]
Cc1ccc(C(=O)CSc2nnc3c4ccccc4nc(C(C)(C)C)n23)cc1	–	inconclusive: 1.16 µM [activator, partial curve, poor fit]
CC(C)CC(=O)NC(=S)NNC(=O)c1ccc(NC(=O)C2CCCCC2)cc1	–	inconclusive: 29.1 µM [falling, single point]
COc1cccc(CNc2nnnn2C)c1OC	inconclusive: 9.79%	–
O=C(/C=C/c1ccc(-c2ccccc2)cc1)NCc1cccnc1	inconclusive: 67.9%	–
COC(=O)c1c(NC(=O)CN(c2ccc(C)c(C)c2)S(C)(=O)=O)sc2c1CCCC2	–	inconclusive: 23.1 µM [falling, single point]
Cc1cc(=O)[nH]c(N2CCN(C(c3ccccc3)c3ccccc3)CC2)n1	inconclusive: -26.9%	–
C=CCN(C(=O)c1ccccc1)C1CCS(=O)(=O)C1 (centres undefined)	inactive	–
CCOc1ccccc1CN1C(=O)C2(OCCO2)c2ccccc21	inconclusive: 384%	–
Cc1cccc(NC(=O)CSCC(=O)Nc2ccc(S(=O)(=O)N3CCCC3)cc2)c1	–	inconclusive: 9.2 µM [rising, partial curve]

Structure (SMILES)	lipid storage change, negative = inhibition	Potency
COc1ccc(NC(=S)N/N=C/c2ccc(F)cc2)cc1OC	inconclusive: -14.5%	–
COc1cccc(CC(NC(C)=O)C(=O)NC2CCN(c3nnnn3-c3ccccc3)CC2)c1OC (centres undefined)	inconclusive: 34.5%	–
O=C(Nc1ccc(Cc2ccncc2)cc1)c1ccc(Cl)c([N+](=O)[O-])c1	inconclusive: 28.4%	–
Cc1cc(NCCCOC(C)C)n2c(nc3ccccc32)c1C#N	–	inconclusive: 0.92 µM [falling, full curve, poor fit]
CN(CC(=O)Nc1cccc(F)c1)C(=O)c1ccccc1Sc1ccccc1C#N	–	inconclusive: 20.6 µM [falling, single point]
COc1cc2[nH]c3c(=O)n(CCN(C(C)C)C(C)C)cnc3c2cc1OC	inconclusive: 39.2%	–
CCC(=O)N1CCCc2ccccc21	–	inconclusive: 0.0517 µM [falling, full curve, poor fit]
CC(NC(=O)C1CCC1)c1ccc(Br)cc1 (centres undefined)	–	inconclusive: 1.46 µM [activator, partial curve]
CCOc1ccc(NC(=O)CSc2ccc(-c3cccnc3)nn2)cc1	inconclusive: 74.5%	–
CCn1c(=O)c(C(=O)NNC(=O)Cc2ccccc2)c(O)c2ccccc21	–	inconclusive: 3.66 µM [activator, full curve, poor fit]
CCOC(=O)c1[nH]c(CSc2nnc(-c3ccc(OC)cc3)o2)c(C(=O)OCC)c1C	–	inconclusive: 18.4 µM [activator, partial curve]
c1coc(Cn2c(-c3ccco3)nc3ccccc32)c1	inconclusive: 21.2%	–
CC(C)=CC(=O)Nc1c(C)cc(C)cc1Cl	–	inconclusive: 0.651 µM [falling, full curve]
Cc1ccc(NC(=S)Nc2ccc(OC(F)F)c(Cl)c2)cc1F	–	inconclusive: 29.1 µM [cytotoxic, single point]
COc1ccc(NC(=O)COC(=O)C23CC4CC(CC(Cl)(C4)C2)C3)c(OC)c1	inconclusive: -22.4%	–
Cc1nnc(SCC(=O)Nc2ccc3c(c2)OCO3)s1	inconclusive: 88.2%	–
O=C(N/N=C/c1cccc(F)c1)c1cc(-c2ccco2)nc2ccccc12	inconclusive: -36.9%	–
CCn1c(=O)n(Cc2ccco2)c(=N)c2c3c(sc21)COC(C)(C)C3	inconclusive: -0.473%	–
COC(=O)c1[nH]c2c(c1C)C(=O)CC(c1cccs1)C2 (centres undefined)	–	inconclusive: 1.3 µM [activator, full curve]
Cc1nc(SCC(=O)NCc2cccs2)nc(C)c1C	inconclusive: -12.5%	–
CCc1nnc(NC(=O)c2csc3c2CCC(C)C3)s1 (centres undefined)	inconclusive: 9.36%	–
Cc1cccc(C(=O)NNC(=O)c2c(-c3ccccc3Cl)noc2C)c1O	–	inconclusive: 6.51 µM [falling, single point]
COc1ccc(CC(=O)Oc2ccc(C(C)C)cc2)cc1S(=O)(=O)N1CCOCC1	inconclusive: 7.53%	–
Cc1ccc(CN2CCN(/N=C\C=C\c3ccccc3)CC2)cc1	inconclusive: 68.4%	–
Cc1ccccc1NC(=O)CSc1nnc(-c2ccco2)n1N	inconclusive: 26.7%	–

Structure (SMILES)	lipid storage change, negative = inhibition	Potency
COc1ccc(CN2CCn3nc(C(=O)NC(C)C)cc3C2=O)cc1	inconclusive: 8.14%	–
CC1(C)Cc2c(sc(NC(=O)COc3ccc(Cl)cc3Cl)c2C(N)=O)C(C)(C)N1	–	inconclusive: 4.61 µM [activator, single point]
O=C1NC(Cc2ccccc2)c2nc3cc(F)ccc3c(=O)n2-c2ccc(Cl)cc21 (centres undefined)	inconclusive: -4.15%	–
CCOC(=O)C1C(c2ccccc2Cl)NC(=O)N(C)C1(O)C(F)(F)F (centres undefined)	inconclusive: -16.4%	–
O=C(CSCc1ccccc1Cl)NN1C(=O)c2ccccc2C1=O	–	inconclusive: 23.1 µM [activator, single point]
Cc1ccc(-c2nn3c(C)nnc3s2)cc1NC(=O)c1ccc(OC(C)C)cc1	inconclusive: 30.9%	–
COc1ccc(-c2ccnc(SCC(=O)c3ccc(OC)c(OC)c3)n2)cc1	inconclusive: 18.7%	–
CN(Cc1ccccc1)C(=O)COC(=O)c1cc(NS(=O)(=O)c2cccs2)ccc1O	inconclusive: 4.94%	–
COc1cccc(OCCn2cc(C=O)c3ccccc32)c1	–	inconclusive: 9.2 µM [activator, partial curve, poor fit]
O=C1NC(=S)S/C1=C\c1ccc2ccccc2c1	inconclusive: 0.461%	–
Cc1cc(C)c(C#N)c(SCS(=O)Cc2ccccc2)n1 (centres undefined)	–	inconclusive: 9.2 µM [falling, partial curve]
CC(C)CNC(=O)c1c(N)n(/N=C/c2cccnc2)c2nc3ccccc3nc12	–	inconclusive: 0.411 µM [activator, full curve]
COc1ccc(-n2nc3cc(N)c(Br)cc3n2)cc1	–	inconclusive: 29.1 µM [falling, single point]
Cc1ccccc1OCc1nc2ccccc2c(=O)n1/N=C/c1cn[nH]c1-c1ccccc1	inconclusive: -1.01%	–
CCN(CC)CCOC(=O)C1(c2ccccc2)CCOCC1	–	inconclusive: 29.1 µM [activator, single point]
COc1ccc(CC(=O)NCc2n[nH]c(=S)n2-c2ccccc2OC)cc1	inconclusive: -22.2%	–
CCS(=O)(=O)c1nc(S(=O)(=O)c2ccc(Cl)cc2)c(N2CCC3(CC2)OCCO3)s1	inconclusive: 21.5%	–
CCN(CC)C(=O)CC(c1ccc2c(c1)OCO2)c1c(OC)cc(OC)c2c(-c3ccccc3)cc(=O)oc12 (centres undefined)	inconclusive: 0.189%	–
O=C(CSc1nnc(-c2ccco2)n1-c1ccccc1)N1CCN(C(=O)c2ccco2)CC1	–	inconclusive: 18.4 µM [rising, partial curve]
CC(=O)Nc1sc(C)c(C)c1C(=O)OCC(=O)Nc1ccccc1	–	inconclusive: 20.6 µM [cytotoxic, partial curve]
Cc1cc(OCC(=O)NCC(c2cccs2)N2CCOCC2)ccc1C(C)C (centres undefined)	inconclusive: 6.64%	–
C=CCNC(=O)c1ccc(C)cc1Cl	inconclusive: -48.7%	–
O=C(CCS(=O)(=O)c1ccc(Cl)cc1)NCCN1C(=O)S/C(=C\c2ccccc2F)C1=O	–	inconclusive: 29.1 µM [falling, single point]
COc1ccc(-n2ncc3c(=O)n(CC(=O)Nc4ccc(S(=O)(=O)N5CCOCC5)cc4)cnc32)cc1	–	inconclusive: 5.17 µM [activator, partial curve, poor fit]

Some of the entries so far, as a markdown table.

| Structure (SMILES) | lipid storage change, negative = inhibition | Potency |
| --- | --- | --- |
| Cc1nnc(SCC(=O)Nc2ccc3c(c2)OCO3)s1 | inconclusive: 88.2% | – |
| O=C(N/N=C/c1cccc(F)c1)c1cc(-c2ccco2)nc2ccccc12 | inconclusive: -36.9% | – |
| CCn1c(=O)n(Cc2ccco2)c(=N)c2c3c(sc21)COC(C)(C)C3 | inconclusive: -0.473% | – |
| COC(=O)c1[nH]c2c(c1C)C(=O)CC(c1cccs1)C2 (centres undefined) | – | inconclusive: 1.3 µM [activator, full curve] |
